Assay results: PubChem BioAssay AID485314 (National Center for Advancing Translational Sciences (NCATS), 2010)
“And” between values parts separate entries of the source, which are not always exact repeats. Identical values can stand only once. In all, about 340,000 compounds went through this assay and about 4,500 (1.3%) were called active. Inconclusive results, whose numbers are uncertain, are shown with a selection of clear calls. Calls follow the shape of the dose curve; as a rule, active = well fitted inhibition curve with a large enough effect; inconclusive = small, poorly fitted or top-dose-only effect, or another doubt; inactive = no such curve, though single readings can be large or run the other way. A potency beside an inconclusive call is a rough fit, not a confirmed value. More than one record can exist for a structure, and the calls need not agree.

Each compound was assayed against DNA polymerase beta (Homo sapiens) (UniProt P06746) (assay: qHTS Assay for Inhibitors of DNA Polymerase Beta). Settings: Pol beta primer extension/strand displacement, fluorescence kinetic; activity change, negative = inhibition: at 114 µM (top of the series).
Outline: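 Pol beta (10 nM) was preincubated with compound for 15 min at room temperature. The reaction was then started with 50 nM substrate and read immediately and after a further 10 min at room temperature.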
% is scaled to controls: 0 for no effect and ±100 for the full control effect; potency is read from the fitted curve at half-maximal effect.

SMILES | Potency | activity change, negative = inhibition
CSc1ccc(CCNC(=O)C2CCN(c3nnc(-n4cccc4)s3)CC2)cc1 | inconclusive: 20 µM [inhibitor, full curve] | 
O=C(NS(=O)(=O)c1ccccc1Cl)c1ccc[nH]1 | inconclusive: 89.1 µM [inhibitor, single point] | 
C(=N\n1cnnc1)/c1ccc(OCc2cccc3ccccc23)cc1 | inconclusive: 1 µM [inhibitor, full curve, poor fit] | 
CCN(CC)CCOC(=O)c1ccc(N/C=C(/C#N)c2nc(-c3ccc4c(c3)OCO4)cs2)cc1 |  | inconclusive: -89.1% [inhibitor]
COc1cc(/C=N/n2cnnc2)ccc1OCCSc1ccc(C)cc1 | inconclusive: 8.91 µM [inhibitor, full curve, poor fit] | 
O=C(NC1CCCCC1)C(c1ccc(O)cc1)N(CC1CCCO1)C(=O)C1COc2ccccc2O1 (stereo not given) | inconclusive: 15.8 µM [inhibitor, single point] | 
O=C(Nc1nnc(S(=O)(=O)N2CCc3ccccc32)s1)c1ccccc1 | inactive | 
CCOC(=O)Nc1c(O)ccc2oc(C)c(-c3ccccc3)c12 | inconclusive: 50.1 µM [inhibitor, partial curve] | 
COc1ccc(C(C)(C)C)cc1NC(=S)NCCN1CCOCC1 | inactive | 
OCCC1CN(Cc2ccc3c(c2)CCO3)CCN1C1CCCC1 (stereo not given) | inconclusive: 100 µM [inhibitor, single point] | 
COc1ccc(CNC(=O)c2cc(-c3ccc(C)c(C)c3)n[nH]2)cc1 | inactive | 
Cc1cccc(-n2ccnc2SCC(=O)Nc2nc3ccccc3s2)c1 | inconclusive: 39.8 µM [inhibitor, single point] | 
O=C(O)c1[nH]c2ccc(Cl)cc2c1CC(=O)N1CCN(C(=O)c2ccco2)CC1 | active: 12.6 µM | 
CCOC(=O)C(=O)Nc1c(C(=O)Nc2cccc(F)c2)oc2ccccc12 | inactive | 
CSc1ccc(C(=O)C2CCCN(C(=O)Cn3cnnn3)C2)cc1 (stereo not given) | inconclusive: 8.91 µM [inhibitor, partial curve] | 
Cc1cc(C)cc(-n2ccnc2SCC(=O)Nc2ccc3c(c2)OCCO3)c1 | inconclusive: 89.1 µM [inhibitor, single point] | 
Cc1cc2[nH]c(=O)c(=O)[nH]c2cc1S(=O)(=O)N1CCN(c2cccc(C)c2C)CC1 | active: 11.2 µM | 
CCOC(=O)c1c2c3c(c(Cl)ccc3[nH]c1=O)C(=O)c1ccccc1-2 | inconclusive: 22.4 µM [inhibitor, full curve, poor fit] | 
Cc1cccc(Nc2ncccc2C(=O)O)c1C | inactive | 
CCOc1ccc(NC(=O)COC(=O)COc2cccc3c2OC(C)(C)C3)cc1 | inconclusive: 79.4 µM [inhibitor, single point] | 
Cn1c(=O)c(=O)n(C)c2cc(N3CCOCC3)c(NS(=O)(=O)c3ccc(F)c(Cl)c3)cc21 | inconclusive: 4.47 µM [inhibitor, single point] | 
Oc1c(Br)cc(Br)cc1C=Nc1ccc2[nH]ncc2c1 | inactive | 
O=C(Nc1cccc(F)c1)c1ccc(-c2ccccc2C(F)(F)F)o1 | inconclusive: 79.4 µM [inhibitor, single point] | 
Cc1ccc2nc(NC(=O)CCn3c(=O)sc4ccccc43)sc2c1 | inconclusive: 89.1 µM [inhibitor, single point] | 

SMILES | Potency | activity change, negative = inhibition
O=S(=O)(NCCc1nnc2ccc(SCc3cccnc3)nn12)c1ccccc1 | inactive | 
COc1ccc(/C(C)=N/OC/C(O)=C(\C#N)c2nc3ccccc3[nH]2)cc1OC | inconclusive: 50.1 µM [inhibitor, partial curve] | 
COc1ccc(OC)c(C2C(C(=O)Nc3ccccc3OC)=C(C)Nc3c(C(=O)Nc4ccc(F)cc4)cnn32)c1 (stereo not given) | inactive | 
Nc1ccc(-c2nc3ncccc3o2)c(O)c1 |  | inconclusive: -36.7% [inhibitor]
CCN(C(=O)COc1ccccc1[N+](=O)[O-])C1CCS(=O)(=O)C1 (stereo not given) | inconclusive: 89.1 µM [inhibitor, single point] | 
COc1ccc(Cl)cc1N/C(N)=N/c1nc(C)cc(=O)[nH]1 | inconclusive: 0.794 µM [inhibitor, full curve] | 
Cc1ccc(Cn2c(C(=O)O)c(CNCc3cccs3)c3ccc(C)cc32)cc1 | inactive | 
Cc1c(C(=O)O)sc2nc(CSc3ncc(C(F)(F)F)cc3Cl)[nH]c(=O)c12 | active: 39.8 µM | 
COc1cc(NC(=O)NCCn2nnc3cc(S(=O)(=O)N(C)C)ccc32)cc(OC)c1 | inactive | 
CCn1cc(Cl)c(C(=O)NNC(=O)CCn2cc([N+](=O)[O-])cn2)n1 | inconclusive: 39.8 µM [inhibitor, single point] | 
Cc1cc2oc(=O)cc(-c3cc4ccccc4o3)c2cc1O | active: 0.251 µM | 
COc1cccc(/C=N/NC(=O)CNC(=O)COc2cccc(C)c2)c1O | inconclusive: 70.8 µM [inhibitor, partial curve, poor fit] | 
CCNC(=S)N=Nc1c(O)[nH]c2ccc([N+](=O)[O-])cc12 | inconclusive: 39.8 µM [inhibitor, single point] | 
O=C(CCCN1C(=O)/C(=C/c2ccc(F)cc2)SC1=S)NC1CCS(=O)(=O)C1 (stereo not given) | inconclusive: 22.4 µM [inhibitor, partial curve, poor fit] | 
CC(=O)N(c1ccc2oc(=O)sc2c1)S(=O)(=O)c1ccc(C(=O)O)cc1 | inactive | 
CS(=O)(=O)NCc1ccc(C(=O)NCc2ccccc2)cc1 | inconclusive: 5.01 µM [inhibitor, single point] | 
O=C(Nc1ccc(-c2nc3cccnc3s2)cc1)c1ccco1 | inconclusive: 4.47 µM [inhibitor, partial curve] | 
COc1ccc2cc3c(N)c(C(=O)NCc4ccco4)sc3nc2c1 | inactive | 
COc1cc2c(-c3ccc(O)cc3)nc3c(c(C)nn3-c3ccccc3)c2cc1OC | inconclusive: 39.8 µM [inhibitor, full curve] | 
O=C(COC(=O)C12CC3CC(CC(Br)(C3)C1)C2)Nc1cccnc1Cl | inconclusive: 1.58 µM [inhibitor, full curve] | 
O=C(CCN1C(=O)/C(=C/c2ccco2)SC1=S)Nc1ccc(O)cc1C(=O)O | active: 22.4 µM | 
CCCCOC(=O)c1[nH]c2c(c1C)C(=O)CC(c1cc(OC)c(OC)c(OC)c1)C2 (stereo not given) | inconclusive: 89.1 µM [inhibitor, single point] | 
N=c1n(CCN2CCCCC2)c2ccccc2n1CC(O)c1ccco1 (stereo not given) | inconclusive: 100 µM [inhibitor, single point] | 

SMILES | Potency | activity change, negative = inhibition
CCN(Cc1ccncc1)Cc1ccc(OC)cc1OC | inconclusive: 0.631 µM [inhibitor, full curve, poor fit] | 
COc1ccc(CCNc2ncnc3[nH]ncc23)cc1OC | inconclusive: 89.1 µM [inhibitor, single point] | 
Cc1cccc(N2CCN(C(=O)Cn3cnc4sc(C)c(S(=O)(=O)N5CCN(c6ncccn6)CC5)c4c3=O)CC2C)c1 (stereo not given) | inactive | 
CCn1c(O)c(/C=C/C=C/C=Nc2ccccc2)sc1=S | inactive | 
CC(Cc1cccnc1)NC(=O)CCc1nnc(-c2ccccc2)o1 (stereo not given) | inconclusive: 63.1 µM [inhibitor, single point] | 
COc1ccc(CCNC(=O)C2CCN(c3ncnc4c3nc3n4CCCCC3)CC2)c(OC)c1 | inactive | 
COc1cc(C(c2oc(CO)cc(=O)c2O)c2oc(CO)cc(=O)c2O)cc(OC)c1OC | inconclusive: 44.7 µM [inhibitor, partial curve] | 
C=CCNC(=O)CSc1nnc(C(CC)N(C)C)n1C1CCCCC1 (stereo not given) | inactive | 
CC(C)(C)C1CCc2c(sc(NC(=O)CCC(=O)O)c2C(=O)Nc2ccccc2C(F)(F)F)C1 (stereo not given) | inconclusive: 0.794 µM [inhibitor, full curve] | 
CCOC(=O)c1cccc(NC(=O)N2CC(CC)Sc3ccccc32)c1 (stereo not given) | inactive | 
COc1ccc(-c2cc3ncnc(Cl)c3s2)cc1 |  | inconclusive: -61.2% [inhibitor]
Cc1ccc(NC(=O)CSc2nnc([C@H](C)NC(=O)OC(C)(C)C)o2)c(C)c1 | inconclusive: 0.158 µM [inhibitor, full curve] | 
O=C(O)CSc1ncnc2scc(-c3ccccc3)c12 | inactive | 
CSc1cccc(NC(=O)Nc2ccccc2)c1 | inconclusive: 89.1 µM [inhibitor, single point] | 
O=C(O)c1cc(-c2ccco2)nc2ccc(Br)cc12 | inactive and active: 3.16 µM | 
CC(=O)Nc1ccc(S(=O)(=O)NCc2ccc(C(=O)NCc3ccc(Cl)cc3)cc2)cc1 | inconclusive: 25.1 µM [inhibitor, full curve, poor fit] and inconclusive: 3.98 µM [inhibitor, full curve, poor fit] | 
O=C(O)COn1c(-c2ccc(Cl)cc2)nc2ccc(Cl)cc21 | inconclusive: 79.4 µM [inhibitor, single point] | 
CC(C)=CCc1c(O)c(CC=C(C)C)c2c(c1O)C(=O)CC(c1ccc(O)cc1)O2 (stereo not given) | inconclusive: 31.6 µM [inhibitor, full curve] | 
Cc1ccccc1NS(=O)(=O)c1cccc(C(=O)Nc2cccc(C(=O)O)c2)c1 | inactive | 
Cc1cc(C)cc(-n2nnc(-c3nsc(NC(=O)c4ccccc4Cl)n3)c2C)c1 | active: 7.94 µM | 
C=Cc1ccc(Cn2c(=O)n(-c3ccc(C)cc3)c(=O)c3c2c2cc(OC)ccc2n3C)cc1 | inactive | 
O=C(CS(=O)CC(=O)Nc1cnc2ccccc2c1)Nc1ccc(Cl)cc1 (stereo not given) | active: 50.1 µM | 
